Results are given in words; binding and its absence hold for the method and conditions named. For some assays here: In cells and extracts the contact can be indirect. Some entries that bind do so weakly or less than the wild type. Tags and fused reporters may be left off the sequences shown.

Protein sequences, listed by entry. Tags and fused reporters are not part of them. Residues count along the entry.
UniProt P30405, residues 30-207: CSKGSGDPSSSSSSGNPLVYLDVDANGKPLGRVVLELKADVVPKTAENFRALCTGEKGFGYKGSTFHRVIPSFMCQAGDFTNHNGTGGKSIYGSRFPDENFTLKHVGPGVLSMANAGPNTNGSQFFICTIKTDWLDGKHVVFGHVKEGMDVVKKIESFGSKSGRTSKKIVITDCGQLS

The target of experiment [1] is T1, oligomycin sensitivity-conferring protein (OSCP) subunit of F-ATP synthase (human (endogenous in U87)) (UniProt P48047).
T1 sequence: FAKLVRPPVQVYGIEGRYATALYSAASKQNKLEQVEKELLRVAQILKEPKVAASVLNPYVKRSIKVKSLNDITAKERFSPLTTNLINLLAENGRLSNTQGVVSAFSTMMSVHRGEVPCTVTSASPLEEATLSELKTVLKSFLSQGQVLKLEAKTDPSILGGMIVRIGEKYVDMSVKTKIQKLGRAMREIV
Description: SEC; soluble fraction (0.7% digitonin) of mitochondria of U87 cells with or without TRAP1 (SCR, KO) on FPLC-Superdex S200 in 20 mM Tris-HCl pH 7.5, 10% glycerol, 10 mM β-mercaptoethanol, 0.5 M NaCl; fractions analyzed by Western blot. On the technique in general: SEC sorts molecules by how far they enter the pores of the column.

Experiment [2] addresses T1, oligomycin sensitivity-conferring protein (OSCP) subunit of F-ATP synthase (human (endogenous in U87)). Description: co-IP; immunoprecipitation of OSCP (beads with mouse monoclonal anti ATP50/OSCP) from solubilized mitochondria of U87 cells with or without TRAP1 (SCR, KO), overnight at 4 °C; Western blotting. (Immunoblotting shows a protein as a band on a membrane.)

Turning to “peptidyl-prolyl cis-trans isomerase cyclophilin D (from UniProt P30405 30-207) (enzyme)”, the binding result in experiment [1] and in experiment [2] was “binds” in each case.

(Values after PMC9751095.)
